Measured values: the supplement of paper PMC10849652
This is one part of the list.

The chains behind the UniProt entries cited, without tags or fusion partners. Where a name states a change or a piece, a line headed by the entry shows the natural chain unless it says otherwise.
UniProt O60291: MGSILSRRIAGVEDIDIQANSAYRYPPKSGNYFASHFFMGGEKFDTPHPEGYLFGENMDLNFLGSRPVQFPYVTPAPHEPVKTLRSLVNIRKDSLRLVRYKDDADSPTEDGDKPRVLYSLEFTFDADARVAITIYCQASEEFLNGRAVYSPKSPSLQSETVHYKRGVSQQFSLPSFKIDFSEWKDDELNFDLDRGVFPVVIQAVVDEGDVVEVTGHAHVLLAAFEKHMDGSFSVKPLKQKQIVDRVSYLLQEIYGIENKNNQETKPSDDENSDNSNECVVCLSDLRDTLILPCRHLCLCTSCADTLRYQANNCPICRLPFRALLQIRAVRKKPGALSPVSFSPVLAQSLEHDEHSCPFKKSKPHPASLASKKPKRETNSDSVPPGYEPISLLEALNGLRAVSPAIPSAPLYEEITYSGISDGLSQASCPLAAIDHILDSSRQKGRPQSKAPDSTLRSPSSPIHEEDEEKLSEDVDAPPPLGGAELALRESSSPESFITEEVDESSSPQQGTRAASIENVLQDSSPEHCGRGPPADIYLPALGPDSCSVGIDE
UniProt Q9Y3C7: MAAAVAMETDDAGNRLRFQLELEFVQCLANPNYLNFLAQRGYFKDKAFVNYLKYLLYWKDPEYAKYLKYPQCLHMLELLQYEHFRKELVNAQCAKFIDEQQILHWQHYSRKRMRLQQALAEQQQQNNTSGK
UniProt Q6P0Q8: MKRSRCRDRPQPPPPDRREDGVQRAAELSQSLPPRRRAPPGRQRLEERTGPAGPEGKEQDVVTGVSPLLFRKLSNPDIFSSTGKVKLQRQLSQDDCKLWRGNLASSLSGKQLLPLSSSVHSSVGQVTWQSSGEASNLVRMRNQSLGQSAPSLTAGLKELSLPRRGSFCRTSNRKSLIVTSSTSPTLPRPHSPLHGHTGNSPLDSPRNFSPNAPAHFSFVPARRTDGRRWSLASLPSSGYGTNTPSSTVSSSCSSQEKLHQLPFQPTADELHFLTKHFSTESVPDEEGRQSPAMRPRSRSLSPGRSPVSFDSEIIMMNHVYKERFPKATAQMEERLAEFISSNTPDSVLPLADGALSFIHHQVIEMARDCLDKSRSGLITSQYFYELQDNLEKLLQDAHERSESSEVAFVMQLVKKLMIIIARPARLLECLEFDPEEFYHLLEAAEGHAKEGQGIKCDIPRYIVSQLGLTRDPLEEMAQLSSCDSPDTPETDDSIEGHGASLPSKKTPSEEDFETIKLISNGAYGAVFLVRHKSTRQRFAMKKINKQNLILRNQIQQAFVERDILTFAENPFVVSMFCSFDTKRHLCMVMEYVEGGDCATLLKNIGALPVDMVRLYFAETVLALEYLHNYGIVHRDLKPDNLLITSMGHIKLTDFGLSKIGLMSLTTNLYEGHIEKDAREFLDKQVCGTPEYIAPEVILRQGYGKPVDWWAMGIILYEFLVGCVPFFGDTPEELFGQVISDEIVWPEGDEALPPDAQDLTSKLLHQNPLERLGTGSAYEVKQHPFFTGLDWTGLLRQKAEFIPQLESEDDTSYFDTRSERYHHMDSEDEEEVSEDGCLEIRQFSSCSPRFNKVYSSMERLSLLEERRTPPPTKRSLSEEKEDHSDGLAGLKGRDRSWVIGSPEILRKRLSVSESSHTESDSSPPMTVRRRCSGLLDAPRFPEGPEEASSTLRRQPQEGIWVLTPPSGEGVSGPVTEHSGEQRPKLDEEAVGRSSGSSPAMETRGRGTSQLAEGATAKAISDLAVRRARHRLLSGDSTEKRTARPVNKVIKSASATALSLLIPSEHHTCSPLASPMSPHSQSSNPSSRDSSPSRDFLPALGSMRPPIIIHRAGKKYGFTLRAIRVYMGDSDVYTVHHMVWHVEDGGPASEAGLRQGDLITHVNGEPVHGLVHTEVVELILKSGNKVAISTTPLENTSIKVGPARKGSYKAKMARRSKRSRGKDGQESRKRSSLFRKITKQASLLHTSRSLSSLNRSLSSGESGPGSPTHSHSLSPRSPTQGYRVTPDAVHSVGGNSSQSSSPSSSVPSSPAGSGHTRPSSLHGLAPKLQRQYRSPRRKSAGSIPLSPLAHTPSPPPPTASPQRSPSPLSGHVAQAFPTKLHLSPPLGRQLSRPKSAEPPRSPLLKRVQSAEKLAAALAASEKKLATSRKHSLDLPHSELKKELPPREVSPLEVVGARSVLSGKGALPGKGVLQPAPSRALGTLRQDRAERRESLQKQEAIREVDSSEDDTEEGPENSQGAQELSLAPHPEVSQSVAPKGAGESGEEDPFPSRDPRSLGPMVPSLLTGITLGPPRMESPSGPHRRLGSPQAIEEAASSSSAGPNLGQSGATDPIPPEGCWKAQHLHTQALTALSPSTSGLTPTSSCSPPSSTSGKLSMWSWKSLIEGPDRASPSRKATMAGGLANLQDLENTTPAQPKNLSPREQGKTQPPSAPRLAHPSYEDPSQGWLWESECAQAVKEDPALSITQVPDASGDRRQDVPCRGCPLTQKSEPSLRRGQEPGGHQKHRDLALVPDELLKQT
UniProt Q14680: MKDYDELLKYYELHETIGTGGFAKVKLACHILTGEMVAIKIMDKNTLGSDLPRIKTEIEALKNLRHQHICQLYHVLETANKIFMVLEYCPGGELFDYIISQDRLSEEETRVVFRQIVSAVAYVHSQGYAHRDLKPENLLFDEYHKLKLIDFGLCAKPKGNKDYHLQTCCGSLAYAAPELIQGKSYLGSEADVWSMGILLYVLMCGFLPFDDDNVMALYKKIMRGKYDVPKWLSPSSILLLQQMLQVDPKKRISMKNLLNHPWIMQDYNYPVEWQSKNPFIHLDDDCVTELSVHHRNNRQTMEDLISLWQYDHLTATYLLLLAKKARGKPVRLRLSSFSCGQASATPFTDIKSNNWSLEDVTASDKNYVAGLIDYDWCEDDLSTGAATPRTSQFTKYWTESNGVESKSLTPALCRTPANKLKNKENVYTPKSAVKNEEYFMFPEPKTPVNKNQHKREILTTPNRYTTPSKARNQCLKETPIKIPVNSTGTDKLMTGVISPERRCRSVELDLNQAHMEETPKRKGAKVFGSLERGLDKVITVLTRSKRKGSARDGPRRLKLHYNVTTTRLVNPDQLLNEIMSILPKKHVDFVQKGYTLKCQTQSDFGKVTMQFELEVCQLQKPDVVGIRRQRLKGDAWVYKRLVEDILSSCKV
UniProt Q9H1U4: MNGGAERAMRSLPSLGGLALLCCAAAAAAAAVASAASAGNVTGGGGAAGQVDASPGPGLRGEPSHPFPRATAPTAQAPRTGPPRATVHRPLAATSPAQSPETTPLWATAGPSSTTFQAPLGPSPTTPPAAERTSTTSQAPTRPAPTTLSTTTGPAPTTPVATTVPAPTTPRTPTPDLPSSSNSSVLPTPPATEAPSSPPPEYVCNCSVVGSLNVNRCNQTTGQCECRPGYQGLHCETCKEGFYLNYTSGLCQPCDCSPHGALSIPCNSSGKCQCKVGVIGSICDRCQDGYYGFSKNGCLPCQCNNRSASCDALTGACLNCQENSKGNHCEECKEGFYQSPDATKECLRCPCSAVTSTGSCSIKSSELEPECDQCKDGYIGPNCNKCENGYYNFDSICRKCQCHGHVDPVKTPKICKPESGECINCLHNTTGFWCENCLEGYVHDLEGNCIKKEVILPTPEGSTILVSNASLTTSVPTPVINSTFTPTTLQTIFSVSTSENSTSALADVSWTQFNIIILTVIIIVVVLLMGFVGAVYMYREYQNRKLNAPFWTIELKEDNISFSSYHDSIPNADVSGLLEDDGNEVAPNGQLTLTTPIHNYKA
UniProt Q13503: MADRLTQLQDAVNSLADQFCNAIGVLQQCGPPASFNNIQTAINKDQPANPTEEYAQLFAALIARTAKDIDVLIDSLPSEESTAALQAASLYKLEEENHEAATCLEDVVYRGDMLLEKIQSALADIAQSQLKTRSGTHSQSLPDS
UniProt Q6UX53: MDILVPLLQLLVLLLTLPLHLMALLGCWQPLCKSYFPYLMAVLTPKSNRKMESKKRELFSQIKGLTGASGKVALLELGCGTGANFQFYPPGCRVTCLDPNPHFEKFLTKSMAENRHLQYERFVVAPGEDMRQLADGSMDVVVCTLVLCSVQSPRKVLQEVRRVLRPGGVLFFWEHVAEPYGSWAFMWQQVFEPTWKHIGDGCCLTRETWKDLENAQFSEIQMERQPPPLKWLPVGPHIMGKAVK
UniProt Q8NHS3: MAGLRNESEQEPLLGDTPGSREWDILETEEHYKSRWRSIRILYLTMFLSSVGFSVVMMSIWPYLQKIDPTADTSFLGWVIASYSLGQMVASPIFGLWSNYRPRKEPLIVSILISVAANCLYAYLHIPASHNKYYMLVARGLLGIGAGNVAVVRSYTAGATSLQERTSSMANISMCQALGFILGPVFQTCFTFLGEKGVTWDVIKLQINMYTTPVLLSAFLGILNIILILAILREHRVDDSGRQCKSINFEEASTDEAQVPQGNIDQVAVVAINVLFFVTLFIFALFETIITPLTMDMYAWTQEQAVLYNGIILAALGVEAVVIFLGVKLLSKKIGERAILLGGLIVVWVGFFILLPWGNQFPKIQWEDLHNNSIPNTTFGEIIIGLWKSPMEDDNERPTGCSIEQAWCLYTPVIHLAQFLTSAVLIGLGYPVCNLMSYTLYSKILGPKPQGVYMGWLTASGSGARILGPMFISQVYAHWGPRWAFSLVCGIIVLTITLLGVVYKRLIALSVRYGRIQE
UniProt Q8TCB7: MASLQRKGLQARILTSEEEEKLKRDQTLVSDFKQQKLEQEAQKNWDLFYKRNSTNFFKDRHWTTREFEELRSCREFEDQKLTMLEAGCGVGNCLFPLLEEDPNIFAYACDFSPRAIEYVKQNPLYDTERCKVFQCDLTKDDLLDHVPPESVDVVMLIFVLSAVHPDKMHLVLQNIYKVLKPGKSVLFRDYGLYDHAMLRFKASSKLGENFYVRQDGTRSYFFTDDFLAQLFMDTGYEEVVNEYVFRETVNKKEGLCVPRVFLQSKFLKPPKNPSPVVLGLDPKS
MCTS2P, A0A3B3IRV3, UniProt A0A3B3IRV3, whole entry, looked up: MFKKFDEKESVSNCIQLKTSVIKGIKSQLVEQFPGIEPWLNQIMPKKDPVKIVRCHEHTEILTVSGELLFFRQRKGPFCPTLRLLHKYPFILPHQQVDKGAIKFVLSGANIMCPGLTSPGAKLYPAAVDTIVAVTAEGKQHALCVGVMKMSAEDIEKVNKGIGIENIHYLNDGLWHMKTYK
UniProt Q9NX70: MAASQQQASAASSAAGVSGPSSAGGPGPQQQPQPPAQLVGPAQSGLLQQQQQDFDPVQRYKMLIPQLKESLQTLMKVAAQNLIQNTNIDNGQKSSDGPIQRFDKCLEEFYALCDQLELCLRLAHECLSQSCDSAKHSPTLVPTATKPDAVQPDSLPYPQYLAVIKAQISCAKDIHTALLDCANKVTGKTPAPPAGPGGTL
UniProt P21741: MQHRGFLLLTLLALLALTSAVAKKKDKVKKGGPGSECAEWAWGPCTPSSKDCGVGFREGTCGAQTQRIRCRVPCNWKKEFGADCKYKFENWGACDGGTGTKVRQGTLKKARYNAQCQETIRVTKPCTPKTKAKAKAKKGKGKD
UniProt O75586: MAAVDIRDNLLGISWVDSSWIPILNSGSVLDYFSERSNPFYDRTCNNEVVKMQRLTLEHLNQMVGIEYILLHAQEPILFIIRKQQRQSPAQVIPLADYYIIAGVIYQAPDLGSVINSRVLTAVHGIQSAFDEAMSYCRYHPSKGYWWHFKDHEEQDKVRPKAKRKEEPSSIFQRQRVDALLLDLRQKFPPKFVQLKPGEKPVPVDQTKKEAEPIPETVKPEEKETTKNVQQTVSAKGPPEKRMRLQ
UniProt P55082: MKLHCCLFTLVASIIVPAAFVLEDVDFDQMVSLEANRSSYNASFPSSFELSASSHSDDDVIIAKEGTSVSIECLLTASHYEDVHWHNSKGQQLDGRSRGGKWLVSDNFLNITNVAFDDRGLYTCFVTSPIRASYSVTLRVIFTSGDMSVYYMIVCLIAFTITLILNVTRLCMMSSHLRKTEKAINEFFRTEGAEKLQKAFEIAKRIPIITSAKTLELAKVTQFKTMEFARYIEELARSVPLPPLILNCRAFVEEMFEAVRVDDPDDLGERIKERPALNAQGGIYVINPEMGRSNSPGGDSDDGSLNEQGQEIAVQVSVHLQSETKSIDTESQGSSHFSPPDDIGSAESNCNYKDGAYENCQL
UniProt Q02078: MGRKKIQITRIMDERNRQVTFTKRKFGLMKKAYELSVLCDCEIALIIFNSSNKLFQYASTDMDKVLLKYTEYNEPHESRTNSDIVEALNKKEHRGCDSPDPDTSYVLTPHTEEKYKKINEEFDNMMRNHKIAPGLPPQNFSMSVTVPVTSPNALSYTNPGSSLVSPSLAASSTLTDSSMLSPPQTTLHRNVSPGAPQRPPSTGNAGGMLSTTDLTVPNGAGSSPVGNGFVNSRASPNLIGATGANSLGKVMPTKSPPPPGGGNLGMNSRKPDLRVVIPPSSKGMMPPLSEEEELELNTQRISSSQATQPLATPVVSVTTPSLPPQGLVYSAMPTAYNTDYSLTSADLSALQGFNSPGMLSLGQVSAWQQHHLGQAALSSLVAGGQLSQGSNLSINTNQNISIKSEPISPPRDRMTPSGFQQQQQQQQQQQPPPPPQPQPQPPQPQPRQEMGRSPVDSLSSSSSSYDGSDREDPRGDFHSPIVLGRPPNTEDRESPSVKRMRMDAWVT

Key:
Assay in all cases: log2 fold change, soluble protein after heating vs DMSO (PISA); higher = thermal stabilisation; K562 cells, 10 uM, 30 min; active = over 0.2 and 3.5 SD of the protein, either way, in both replicates (recomputed)
[1] = compound: CC1=C(C=C(C=C1)NC(=O)C2=CC(=CC=C2)N(C)C)NC(=O)C3=CC=C(C=C3)O
Procedure, shortened: (§1)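 Thermal stability values are relative to control samples and come from duplicates. They are expressed as log2 fold changes. For measurement, K562 cells (2×10^6 cells/mL) received 10 μM compound for 30 min, and aliquots were heated for 3 min over 48°C-58°C, pooled, and extracted at 4°C in PBS with 0.5% NP-40. Soluble protein, the supernatant after 21,000xg for 90 min, was quantified by TMTpro 16plex LC-MS/MS with equalised channel sums.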

[2] = compound: CC1=CC=C(C=C1)SC2=C3C=C(SC3=CN=C2)C(=O)N
Procedure, shortened: as §1

[3] = compound: CC1=NC(=CC=C1)C2=C(N=C(N2)C(C)(C)C)C3=CC4=NC=CN=C4C=C3
Procedure, shortened: as §1

[4] = compound: CCCS(=O)(=O)Nc1ccc(F)c(C(=O)c2c[nH]c3ncc(Cl)cc23)c1F
Procedure, shortened: as §1

[5] = compound: CCN(CC)Cc1ccc2cc(COC(=O)Nc3ccc(C(=O)NO)cc3)ccc2c1 [givinostat]
Procedure, shortened: as §1

[6] = compound: CCN(CCCOc1ccc2c(Nc3cc(CC(=O)Nc4cccc(F)c4)[nH]n3)ncnc2c1)CCOP(=O)(O)O [barasertib]
Procedure, shortened: as §1

[7] = compound: CC[C@@H]1C(=O)N(C)c2cnc(Nc3ccc(C(=O)N[C@H]4CC[C@H](N5CCN(CC6CC6)CC5)CC4)cc3OC)nc2N1C(C)C [volasertib]
Procedure, shortened: as §1

[8] = compound: CCn1cc(-c2ccnc3[nH]c(-c4cccc(CN(C)C)c4)cc23)c(-c2ccc(NC(=O)N(C)C)cc2)n1
Procedure, shortened: as §1

[9] = compound: CN1CCC(CNc2ccc3ncc(-c4cccc(OC(F)(F)F)c4)n3n2)CC1
Procedure, shortened: as §1

[10] = compound: CCCS(=O)(=O)Nc1ccc(F)c(C(=O)c2c[nH]c3ncc(-c4ccc(Cl)cc4)cc23)c1F [vemurafenib]
Procedure, shortened: as §1

[11] = compound: CCCc1cc(C)[nH]c(=O)c1CNC(=O)c1cc(-c2ccnc(N3CCN(C)CC3)c2)cc2c1cnn2C(C)C
Procedure, shortened: as §1

[12] = compound: CC[C@@H]1C(=O)N(C)c2cnc(Nc3ccc(C(=O)NC4CCN(C)CC4)cc3OC)nc2N1C1CCCC1
Procedure, shortened: as §1

[13] = compound: CC[C@H](C)N1C=C(C2=C(C=C(C=C21)C3=CN=C(C=C3)N4CCNCC4)C(=O)NCC5=C(C=C(NC5=O)C)C)C
Procedure, shortened: as §1

[14] = compound: CN(C)CC(=O)Nc1ccc2[nH]c(=O)c3ccccc3c2c1
Procedure, shortened: as §1

[15] = compound: CC1=C(C=C(C=C1)NC(=O)C2=CC(=CC=C2)C(C)(C)C#N)NC3=CC4=C(C=C3)N=CN(C4=O)C
Procedure, shortened: as §1

[16] = compound: CCCCN(Cc1ccc(C(=O)NO)cc1)C(=O)Nc1ccccc1 [Nexturastat A]
Procedure, shortened: as §1

[17] = compound: CC[C@H](C)[C@@H](C(=O)N[C@@H]([C@@H](C)O)C(=O)N[C@@H](CC(C)C)C(=O)[C@]1(CO1)C)NC(=O)[C@H]([C@@H](C)CC)N(C)C(=O)C [epoxomicin]
Procedure, shortened: as §1

[18] = compound: CN1C2=C(C3=C1C(=O)N(N=C3)CC4=CC(=CC=C4)N)SC(=C2)S(=O)C
Procedure, shortened: as §1

[19] = compound: CCn1c(C(=O)N(C2CC2)C2CC2)cc2c3c(ncn3C)c(Nc3cc(C)n(C)n3)nc21
Procedure, shortened: as §1

[20] = compound: CN(CCOC1=CC=C(C=C1)C[C@H]2C(=O)NC(=O)S2)C3=CC=CC=N3 (racemic) [rosiglitazone]
Procedure, shortened: as §1

Measured: log2 fold change

MGRN1 isoform 2 (UniProt O60291)
inactive: [1] -0.059 | [2] 0.021 | [3] -0.02 | [4] -0.307 | [5] 0.012 | [6] 0 | [7] -0.115 | [8] -0.072 | [9] -0.07

MED31 (UniProt Q9Y3C7)
inactive: [1] -0.021 | [3] 0.06 | [10] 0.105 | [11] -0.044 | [12] 0.203 | [13] -0.027 | [14] -0.151

MAST2 (UniProt Q6P0Q8)
inactive: [1] -0.022

MELK (UniProt Q14680)
inactive: [15] -0.026 | [2] 0.111 | [3] -0.015 | [16] 0.134 | [4] 0.02 | [5] -0.023 | [6] 0.048 | [12] -0.429 | [13] 0.334 | [17] 0.077 | [8] -0.114 | [18] 0.034 | [9] -0.426
active: [7] -1.41

MEGF9 (UniProt Q9H1U4)
inactive: [15] -0.083 | [5] -0.041 | [6] 0.024 | [19] 0.051 | [8] 0.116 | [20] -0.296 | [9] 0.047

MED21 (UniProt Q13503)
inactive: [1] 0.021 | [2] -0.159 | [4] -0.069 | [11] -0.007 | [12] 0.139 | [7] 0.052 | [13] -0.002 | [8] 0.142 | [9] 0.121

METTL7B (UniProt Q6UX53)
inactive: [16] 0.155 | [5] -0.012 | [17] 0.034 | [19] -0.126 | [8] 0.106 | [9] 0.011

METTL9 (UniProt Q9H1A3)
inactive: [1] 0.016 | [2] -0.028 | [10] -0.01 | [4] 0.06 | [11] 0.131 | [5] 0.058 | [6] 0.19 | [7] -0.021 | [19] 0.003 | [8] 0.02 | [14] 0.314 | [20] -0.001 | [18] 0.173 | [9] -0.114

MFSD8 (UniProt Q8NHS3)
inactive: [1] -0.026 | [2] 0.113 | [3] 0.011 | [16] -0.004 | [10] 0.045 | [4] 0.151 | [11] -0.046 | [5] 0.034 | [6] -0.062 | [12] -0.016 | [7] 0.032 | [17] -0.021 | [8] -0.012 | [14] -0.061 | [18] 0.046 | [9] 0.127

METTL6 (UniProt Q8TCB7)
inactive: [15] 0.037 | [2] -0.141 | [3] 0.2 | [16] 0.082 | [4] -0.128 | [11] -0.027 | [5] 0.119 | [6] 0.032 | [7] 0.022 | [17] -0.17 | [19] -0.067 | [8] -0.043 | [20] 0.004 | [18] 0.046 | [9] -0.186

MFHAS1 (UniProt Q9Y4C4)
inactive: [1] 0.092 | [3] -0.194 | [10] -0.063 | [11] -0.593 | [6] -0.092 | [8] -0.213 | [14] -0.117 | [20] -0.207 | [18] 0.174 | [9] 0.029

MCTS2P, A0A3B3IRV3
inactive: [13] 0.008

MED29 (UniProt Q9NX70)
inactive: [2] -0.075 | [4] 0.131 | [11] 0.025 | [5] -0.076 | [7] -0.115 | [13] 0.055 | [18] -0.056

MDK (UniProt P21741)
inactive: [15] 0.166 | [2] -0.108 | [4] -0.154 | [11] 0.03 | [5] -0.392 | [6] -0.111 | [7] 0.362 | [13] -0.189 | [19] 0.02 | [8] -0.068 | [20] -0.045 | [18] 0.13 | [9] 0.162

Retrieved one by one from above, 2 records:
MFHAS1 (UniProt Q9Y4C4)
inactive: [1] 0.092 | [3] -0.194 | [10] -0.063 | [11] -0.593 | [6] -0.092 | [8] -0.213 | [14] -0.117 | [20] -0.207 | [18] 0.174 | [9] 0.029

MCTS2P, A0A3B3IRV3
inactive: [13] 0.008

The results go on:

MED6 (UniProt O75586)
inactive: [15] -0.279 | [3] -0.023 | [16] 0.008 | [10] 0.289 | [11] -0.224 | [5] -0.003 | [6] -0.029 | [12] -0.027 | [13] -0.103 | [17] -0.497 | [19] -0.072 | [8] 0.117 | [14] 0.014 | [20] 0.114 | [9] 0.064

MFAP3 (UniProt P55082)
inactive: [15] 0.038 | [16] 0.11 | [10] -0.115 | [6] 0.05 | [17] -0.054 | [14] -0.118 | [18] -0.008

MEF2A (UniProt Q02078)
inactive: [15] -0.34 | [2] -0.04 | [16] -0.021 | [4] 0.059 | [5] -0.011 | [12] -0.025 | [7] -0.035 | [13] 0.028 | [17] 0.052 | [19] -0.066

MEF2C isoform 2 (UniProt Q06413)
inactive: [16] -0.14 | [12] -0.222 | [17] -0.014
